Measured values as given in PubChem BioAssay AID588778 (Southern Research Institute, 2011).
This is one part of the list.

Experiment: Vibrio cholerae motility inhibitors, OD read-out (AID 588778)
Settings: measured here: bacterial viability at 10 ug/mL, stronger effect = higher value

| Structure (SMILES) | inhibition |
| --- | --- |
| Cc1cccc(C(=O)OC2CN3CCC2CC3)c1 (configuration not stated) | 0.51% |
| COc1ccc(OCC(=O)OC2CN3CCC2CC3)cc1 (configuration not stated) | 20% |
